These are yes or no findings as the source states them, for the method shown. Binding seen in cells or lysates may run through a third protein. A result given as binding can be weak or reduced; the word gives no strength.
Target: Homer1a (mouse (endogenous in inferior olive tissue))
Experiment: co-IP

binding: binds
B1: Homer1 (protein, UniProt Q9Z2Y3 1-366)
chain: MGEQPIFSTRAHVFQIDPNTKKNWVPTSKHAVTVSYFYDSTRNVYRIISLDGSKAIINSTITPNMTFTKTSQKFGQWADSRANTVYGLGFSSEHHLSKFAEKFQEFKEAARLAKEKSQEKMELTSTPSQESAGGDLQSPLTPESINGTDDERTPDVTQNSEPRAEPTQNALPFPHSAGDRTQALSHASSAISKHWEAELATLKGNNAKLTAALLESTANVKQWKQQLAAYQEEAERLHKRVTELECVSSQANAVHSHKTELNQTVQELEETLKVKEEEIERLKQEIDNARELQEQRDSLTQKLQEVEIRNKDLEGQLSDLEQRLEKSQNEQEAFRSNLKTLLEILDGKIFELTELRDNLAKLLECS
